The assay relates to P388 leukemia ip, CD2F1 mice, survival T/C. Kind of assay: NCI In Vivo Anticancer Drug Screen. Data for tumor model P388 Leukemia (intraperitoneal) in CD2F1 (CDF1) mice. The note with it: T/C endpoint: median survival time, higher T/C = longer survival.
Where [1] appears, read: dose: 200.0 mg/kg/injection, schedule: Q01DX005 (ip), vehicle: saline with Tween-80.
[2] abbreviates: dose: 100.0 mg/kg/injection, schedule: Q01DX005 (ip), vehicle: Klucel (hydroxypropylcellulose) (HPC).
The mark [3] stands for this setting: dose: 240.0 mg/kg/injection, schedule: Q01DX005 (ip), vehicle: saline.
Setting [4] is: dose: 200.0 mg/kg/injection, schedule: Q01DX009 (ip), vehicle: saline.
[5] abbreviates: dose: 200.0 mg/kg/injection, schedule: Q01DX005 (ip), vehicle: Klucel (hydroxypropylcellulose) (HPC).
[6] abbreviates: dose: 100.0 mg/kg/injection, schedule: Q01DX009 (ip), vehicle: saline with Tween-80.
[7] abbreviates: dose: 200.0 mg/kg/injection, schedule: Q01DX009 (ip), vehicle: saline with Tween-80.

Molecules are shown by their SMILES. The list does not hold the whole screen: it gathers tests that were run many times, whatever their T/C, doses with no T/C, and many T/C values between a quarter and a half above the control. Other doses and runs of a compound stand elsewhere. T/C is the treated group as % of the vehicle group. Some entries give survivors of the animals treated and no T/C: the source holds a T/C of zero for them, seemingly a mark for toxic or unscored doses. Some doses without a T/C left all or most animals alive at the check, yet need not have been tolerated: survival well below the control is almost never listed, so the zero probably covers shortened survival too. Survivors were counted at the toxicity check, usually on the fifth day, unless a day is given; later deaths do not show. Schedule codes are those of the source, taken here to give the interval after Q, in days (D) or hours (H), and the number of doses after X. Some entries were tested several times; their values stand side by side, smallest first. Some structures stand for samples that the source files as different forms (salt, stereo form or complex); doses refer to the form tested. Where survival is the endpoint, this PubChem deposit counts one and a half times the control or more as active, and values a quarter to a half above the control carry no call in these data; other NCI protocols may use other cut-offs. Some T/C values are followed by the survivors on the day toxicity was checked, most often the fifth; where none is given, no animal had died by that day.

On to `O=C1c2ccccc2SCC12OC2c1ccc(Cl)cc1` (stereo not drawn), for which the survivor count (dose: 400.0 mg/kg/injection, schedule: Q04DX002 (ip), vehicle: saline with Tween-80) is listed as 6 of 6.
For `COc1cc(NC(C)CCCNC(C)C)c2ncccc2c1` (stereo not drawn), the survivor count is 1 of 5 (dose: 25.0 mg/kg/injection, schedule: Q01DX005 (ip), vehicle: saline with Tween-80); 0 of 5 (dose: 50.0 mg/kg/injection, schedule: Q01DX005 (ip), vehicle: saline with Tween-80); 0 of 5 (dose: 100.0 mg/kg/injection, schedule: Q01DX005 (ip), vehicle: saline with Tween-80); 0 of 5 under setting [1].
Regarding `O=C1CN(C2OC(CO)C(O)C2O)C(=O)NC1=O` (stereo not drawn), the T/C (dose: 200.0 mg/kg/injection, schedule: Q01DX005 (ip), vehicle: saline) was 134 % of control.
For the molecule `CCCCn1c(CCC)nc([N+](=O)[O-])c1Sc1ncn[nH]1`, under setting [2], the T/C is 125 % of control.
`OCC1(OC2OC(CF)C(O)C(O)C2O)OC(CF)C(O)C1O` (stereo not drawn): the survivor count under setting [3] was 2 of 6.
Regarding `O=C1c2ccccc2C(=O)N1O`, the survivor count under setting [4] was 2 of 6.
For `COc1cccc(C(=O)CC(c2ccccc2)C(C)(C)[N+](=O)[O-])c1` (stereo not drawn), the survivor count under setting [1] is recorded as 2 of 5.
In the case of `CCN(CC)C/C(C)=C(/c1ccccc1)c1ccccc1S(N)(=O)=O`, the survivor count (dose: 400.0 mg/kg/injection, schedule: Q01DX001 (ip), vehicle: Klucel (hydroxypropylcellulose) (HPC)) is reported as 0 of 6.
`COc1ccc2ncc(COC(=O)NC3CCCCC3)c(COC(=O)NC3CCCCC3)c2c1`: the survivor count is, setting by setting: under setting [2], 6 of 6; under setting [5], 6 of 6.
In the case of `COC(/C=N/O)c1ccccc1` (stereo not drawn), the survivor count was 6 of 6 (dose: 25.0 mg/kg/injection, schedule: Q04DX003 (ip), vehicle: saline with Tween-80); 5 of 6 and 6 of 6 (dose: 200.0 mg/kg/injection, schedule: Q04DX003 (ip), vehicle: saline with Tween-80); 3 of 6 (dose: 400.0 mg/kg/injection, schedule: Q04DX003 (ip), vehicle: saline with Tween-80); 1 of 6 (dose: 400.0 mg/kg/injection, schedule: Q04DX003 (ip), vehicle: saline).
Consider `CCCCCCCCCCCCCCCCCSCc1ccc(Nc2ccccc2)cc1`, for which, under setting [6], the T/C is 131 % of control.
Consider `CCOP(=S)(N1CC1C)N1CC1C` (stereo not drawn), for which the T/C was 130 % of control under setting [6] and 131 % of control (dose: 150.0 mg/kg/injection, schedule: Q04DX003 (ip), vehicle: saline with Tween-80). Besides, the survivor count under setting [7] is listed as 5 of 6.
Consider `Ic1ncnc2c1ncn2C1CCCCO1` (stereo not drawn), for which, under “dose: 50.0 mg/kg/injection, schedule: Q01DX009 (ip), vehicle: saline”, the survivor count was 6 of 6.
Turning to `CC(=O)Oc1c(C)[nH]ccc1=O`, the T/C (dose: 100.0 mg/kg/injection, schedule: Q01DX009 (ip), vehicle: saline) was 127 and 132 % of control; the T/C under setting [4] is 127 and 141 % of control; the T/C (dose: 800.0 mg/kg/injection, schedule: Q01DX009 (ip), vehicle: saline) is 134 % of control.
With `O=c1oc(-c2ccccc2)nc2c1sc1nc(-c3ccccc3)oc(=O)c12`, the survivor count by setting is: (dose: 1.56 mg/kg/injection, schedule: Q01DX005 (ip), vehicle: Klucel (hydroxypropylcellulose) (HPC)) 5 of 6 and 6 of 6; (dose: 12.5 mg/kg/injection, schedule: Q01DX005 (ip), vehicle: Klucel (hydroxypropylcellulose) (HPC)) 6 of 6; (dose: 25.0 mg/kg/injection, schedule: Q01DX005 (ip), vehicle: Klucel (hydroxypropylcellulose) (HPC)) 5 of 6; under setting [2], 6 of 6; under setting [5], 4 of 6.
As for `O=c1[nH]cc(CS)c(=O)[nH]1`, the survivor count under setting [4] is recorded as 5 of 6.
On to `O=S(=O)(c1cc(Cl)c(Cl)cc1Cl)N(CCCCCN(S(=O)(=O)c1cc(Cl)c(Cl)cc1Cl)S(=O)(=O)c1cc(Cl)c(Cl)cc1Cl)S(=O)(=O)c1cc(Cl)c(Cl)cc1Cl`, for which, for the setting “dose: 240.0 mg/kg/injection, schedule: Q01DX005 (ip), vehicle: Klucel (hydroxypropylcellulose) (HPC)”, the survivor count is 5 of 6.
On to `C[N+](C)(C)CCC[n+]1ccc(CCn2ccc3ccccc32)cc1`, for which, where the note is “dose: 200.0 mg/kg/injection, schedule: Q01DX001 (ip), vehicle: saline”, the survivor count is on record as 0 of 6.
`COc1cc2c(cc1C[N+](C)(C)CSc1ccccc1)-c1ccccc1CC2`: the survivor count (dose: 10.0 mg/kg/injection, schedule: Q01DX005 (ip), vehicle: DMSO) was 2 of 6 and 3 of 6; the survivor count (dose: 20.0 mg/kg/injection, schedule: Q01DX005 (ip), vehicle: DMSO) is given as 0 of 6; the survivor count (dose: 40.0 mg/kg/injection, schedule: Q01DX005 (ip), vehicle: DMSO) is given as 0 of 6; the survivor count (dose: 80.0 mg/kg/injection, schedule: Q01DX005 (ip), vehicle: DMSO) was 0 of 6.
Turning to `O=C(O)/C=N/NS(=O)(=O)Cc1ccccc1`, the T/C runs as follows: (dose: 12.5 mg/kg/injection, schedule: Q01DX009 (ip), vehicle: other) 127 and 139 % of control; (dose: 25.0 mg/kg/injection, schedule: Q01DX009 (ip), vehicle: other) 128 and 129 % of control; (dose: 50.0 mg/kg/injection, schedule: Q01DX009 (ip), vehicle: other) 142 and 146 % of control; (dose: 100.0 mg/kg/injection, schedule: Q01DX009 (ip), vehicle: other) 147 % of control [5 of 6 alive]. In addition, the survivor count (dose: 400.0 mg/kg/injection, schedule: Q01DX009 (ip), vehicle: other) was 5 of 6.
With `C[Si](C)(CNCCN)c1ccccc1`, the survivor count under setting [3] is recorded as 0 of 6.
For the molecule `COc1cc2c(cc1OC)[C@H]1C(=O)c3cc4c(cc3[C@H]1N(C)C2=O)OCO4`, the survivor count is, setting by setting: (dose: 100.0 mg/kg/injection, schedule: Q01DX005 (ip), vehicle: distilled water + Tween-80) 5 of 5; (dose: 200.0 mg/kg/injection, schedule: Q01DX005 (ip), vehicle: distilled water + Tween-80) 5 of 5.
`Cc1cccc(=O)[n-]1.Cc1cccc(=O)[n-]1.Cc1cccc(=O)[n-]1.Cc1cccc(=O)[n-]1.[Cu+].[Cu+].[Cu+].[Cu+]`: the survivor count (dose: 200.0 mg/kg/injection, schedule: Q04DX002 (ip), vehicle: Klucel (hydroxypropylcellulose) (HPC)) is reported as 0 of 6 and the survivor count (dose: 400.0 mg/kg/injection, schedule: Q04DX002 (ip), vehicle: Klucel (hydroxypropylcellulose) (HPC)) is 0 of 6.
For the molecule `COc1cc2c(cc1I)-c1c(cc(OC)c(OC)c1OC)CC[C@@H]2NC(C)=O`, the T/C reads like this: (dose: 132.0 mg/kg/injection, schedule: Q01DX009 (ip), vehicle: saline with Tween-80) 145 % of control; (dose: 200.0 mg/kg/injection, schedule: Q01DX009 (ip), vehicle: saline sonified) 145 % of control; (dose: 400.0 mg/kg/injection, schedule: Q01DX009 (ip), vehicle: saline sonified) 131 % of control [5 of 6 alive]. Also, the survivor count is, setting by setting: under setting [7], 4 of 6; (dose: 300.0 mg/kg/injection, schedule: Q01DX009 (ip), vehicle: saline with Tween-80) 4 of 6.
In the case of `CC(C)NC(=O)OCc1c(COC(=O)NC(C)C)c(-c2ccc(Cl)c(Cl)c2)n2c1C[C@@H](OC(=O)CCC(=O)O)C2` (tested in a mixture with another compound), the T/C (dose: 100.0 mg/kg/injection, schedule: Q01DX005 (ip), vehicle: water) was 125 and 128 % of control. For the same molecule, the survivor count (dose: 200.0 mg/kg/injection, schedule: Q01DX005 (ip), vehicle: water) was 0 of 6 and 3 of 6; the survivor count (dose: 400.0 mg/kg/injection, schedule: Q04DX002 (ip), vehicle: water) is given as 0 of 6.
Turning to `CCOCC(=O)N[C@H]1CCc2cc(OC)c(OC)c(OC)c2-c2ccc(SC)c(=O)cc21`, where the note is “dose: 0.38 mg/kg/injection, schedule: Q01DX009 (ip), vehicle: Klucel (hydroxypropylcellulose) (HPC)”, the T/C is 130 [5 of 6 alive] and 132 % of control [5 of 6 alive]. Moreover, the survivor count (dose: 3.0 mg/kg/injection, schedule: Q01DX009 (ip), vehicle: Klucel (hydroxypropylcellulose) (HPC)) is on record as 5 of 6 and the survivor count (dose: 6.0 mg/kg/injection, schedule: Q01DX009 (ip), vehicle: Klucel (hydroxypropylcellulose) (HPC)) is listed as 4 of 6.

The values above are taken from PubChem BioAssay AID330 (DTP/NCI, 2004).
